Some of the results follow.
Assays:
Experiment in all cases: log2 fold change, soluble protein after heating vs DMSO (PISA); higher = thermal stabilisation; K562 cells, 10 uM, 30 min; active = over 0.2 and 3.5 SD of the protein, either way, in both replicates (recomputed)
[1] = compound: NC(=O)Nc1cc(-c2cccc(F)c2)sc1C(=O)N[C@H]1CCCNC1
Outline: (§1)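 Soluble protein was defined as the supernatant after 21,000xg for 90 min. It came from K562 cells at 2×10^6 cells/mL given 10 μM compound for 30 min, heated in aliquots for 3 min across 48°C-58°C, pooled, and extracted in PBS with 0.5% NP-40 at 4°C, and was quantified by TMTpro 16plex LC-MS/MS with equalised channel sums. Thermal stability against control samples, from duplicates, is reported as log2 fold change.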

Protein sequences, listed by entry. Tags and fused reporters are not part of them. Lines headed by an entry give the natural chain unless they say otherwise; changes in a name come on top.
UniProt Q5J8M3, whole entry, looked up: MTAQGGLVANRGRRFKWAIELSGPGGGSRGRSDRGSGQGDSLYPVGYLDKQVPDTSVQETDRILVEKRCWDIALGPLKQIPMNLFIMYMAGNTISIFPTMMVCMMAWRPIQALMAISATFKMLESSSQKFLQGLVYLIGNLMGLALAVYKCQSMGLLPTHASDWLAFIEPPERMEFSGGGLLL
UniProt O15371, whole entry, looked up: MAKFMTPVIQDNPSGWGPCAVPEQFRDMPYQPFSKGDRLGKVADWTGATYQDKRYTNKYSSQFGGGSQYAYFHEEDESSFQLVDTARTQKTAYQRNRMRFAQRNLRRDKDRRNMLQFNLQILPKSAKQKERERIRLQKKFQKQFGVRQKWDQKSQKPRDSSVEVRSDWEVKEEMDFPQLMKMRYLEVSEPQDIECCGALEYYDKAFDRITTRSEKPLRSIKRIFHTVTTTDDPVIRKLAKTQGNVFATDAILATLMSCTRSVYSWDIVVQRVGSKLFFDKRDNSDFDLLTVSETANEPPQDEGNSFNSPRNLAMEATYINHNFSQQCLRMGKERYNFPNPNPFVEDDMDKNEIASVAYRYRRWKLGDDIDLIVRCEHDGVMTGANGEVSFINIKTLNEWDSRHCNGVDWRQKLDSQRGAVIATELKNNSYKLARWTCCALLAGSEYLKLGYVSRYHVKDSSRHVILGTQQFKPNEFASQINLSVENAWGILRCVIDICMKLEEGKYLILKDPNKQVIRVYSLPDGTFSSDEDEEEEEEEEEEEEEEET
UniProt Q9UI10, whole entry, looked up: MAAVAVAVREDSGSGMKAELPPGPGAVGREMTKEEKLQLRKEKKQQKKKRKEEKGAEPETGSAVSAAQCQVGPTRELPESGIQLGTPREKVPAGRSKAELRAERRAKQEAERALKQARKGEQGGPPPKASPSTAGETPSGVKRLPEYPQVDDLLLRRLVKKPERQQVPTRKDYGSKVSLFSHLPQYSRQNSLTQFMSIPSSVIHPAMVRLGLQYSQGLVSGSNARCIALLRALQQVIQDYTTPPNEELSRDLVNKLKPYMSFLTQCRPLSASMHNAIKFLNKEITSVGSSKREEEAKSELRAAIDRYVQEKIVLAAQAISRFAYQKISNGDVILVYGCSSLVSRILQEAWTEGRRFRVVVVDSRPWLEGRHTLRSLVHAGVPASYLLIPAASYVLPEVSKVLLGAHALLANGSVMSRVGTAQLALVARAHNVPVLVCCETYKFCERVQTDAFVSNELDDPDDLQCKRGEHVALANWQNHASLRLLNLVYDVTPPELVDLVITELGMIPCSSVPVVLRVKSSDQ
UniProt O95834: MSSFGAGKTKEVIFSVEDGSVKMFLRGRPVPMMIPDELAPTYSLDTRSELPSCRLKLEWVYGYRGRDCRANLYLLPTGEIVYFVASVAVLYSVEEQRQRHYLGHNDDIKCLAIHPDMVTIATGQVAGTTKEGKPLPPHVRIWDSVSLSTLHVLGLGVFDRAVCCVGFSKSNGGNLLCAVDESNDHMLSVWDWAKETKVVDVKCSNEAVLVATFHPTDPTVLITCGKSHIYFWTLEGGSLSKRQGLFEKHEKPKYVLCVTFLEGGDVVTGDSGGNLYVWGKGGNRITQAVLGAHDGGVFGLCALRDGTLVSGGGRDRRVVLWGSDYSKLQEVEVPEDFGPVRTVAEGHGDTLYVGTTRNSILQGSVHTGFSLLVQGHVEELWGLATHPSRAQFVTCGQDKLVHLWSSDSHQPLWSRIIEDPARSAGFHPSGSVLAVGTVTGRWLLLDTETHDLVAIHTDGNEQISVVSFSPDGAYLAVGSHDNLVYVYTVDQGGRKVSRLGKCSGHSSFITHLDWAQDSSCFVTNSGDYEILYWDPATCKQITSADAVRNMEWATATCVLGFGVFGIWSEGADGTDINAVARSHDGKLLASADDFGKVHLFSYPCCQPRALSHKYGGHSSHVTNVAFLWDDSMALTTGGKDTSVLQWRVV
UniProt Q9BV81: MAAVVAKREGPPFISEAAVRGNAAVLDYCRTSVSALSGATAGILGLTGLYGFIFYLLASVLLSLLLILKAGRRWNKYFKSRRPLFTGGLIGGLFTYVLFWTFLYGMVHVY
UniProt Q15369, whole entry, looked up: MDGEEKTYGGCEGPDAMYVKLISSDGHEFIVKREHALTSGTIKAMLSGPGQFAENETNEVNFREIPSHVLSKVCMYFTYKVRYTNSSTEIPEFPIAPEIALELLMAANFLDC
UniProt P63241: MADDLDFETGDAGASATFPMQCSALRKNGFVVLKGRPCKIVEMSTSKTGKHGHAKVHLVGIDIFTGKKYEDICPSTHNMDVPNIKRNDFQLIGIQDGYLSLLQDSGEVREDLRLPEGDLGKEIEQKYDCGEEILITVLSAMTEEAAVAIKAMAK
UniProt O94919: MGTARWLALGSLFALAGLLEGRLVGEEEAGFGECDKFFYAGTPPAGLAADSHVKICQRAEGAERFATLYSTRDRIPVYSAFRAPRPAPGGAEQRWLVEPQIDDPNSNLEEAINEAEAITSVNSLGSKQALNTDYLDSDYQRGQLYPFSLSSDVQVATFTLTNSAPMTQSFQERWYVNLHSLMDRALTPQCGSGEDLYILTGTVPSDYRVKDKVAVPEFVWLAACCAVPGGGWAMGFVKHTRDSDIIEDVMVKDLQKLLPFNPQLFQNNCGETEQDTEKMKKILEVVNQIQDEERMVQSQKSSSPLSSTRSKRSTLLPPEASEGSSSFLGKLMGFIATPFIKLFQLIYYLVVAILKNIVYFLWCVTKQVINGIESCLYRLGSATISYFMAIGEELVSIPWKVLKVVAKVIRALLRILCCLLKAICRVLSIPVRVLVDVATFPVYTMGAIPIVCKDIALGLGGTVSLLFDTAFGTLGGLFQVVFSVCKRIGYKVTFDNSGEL
UniProt Q04637, whole entry, looked up: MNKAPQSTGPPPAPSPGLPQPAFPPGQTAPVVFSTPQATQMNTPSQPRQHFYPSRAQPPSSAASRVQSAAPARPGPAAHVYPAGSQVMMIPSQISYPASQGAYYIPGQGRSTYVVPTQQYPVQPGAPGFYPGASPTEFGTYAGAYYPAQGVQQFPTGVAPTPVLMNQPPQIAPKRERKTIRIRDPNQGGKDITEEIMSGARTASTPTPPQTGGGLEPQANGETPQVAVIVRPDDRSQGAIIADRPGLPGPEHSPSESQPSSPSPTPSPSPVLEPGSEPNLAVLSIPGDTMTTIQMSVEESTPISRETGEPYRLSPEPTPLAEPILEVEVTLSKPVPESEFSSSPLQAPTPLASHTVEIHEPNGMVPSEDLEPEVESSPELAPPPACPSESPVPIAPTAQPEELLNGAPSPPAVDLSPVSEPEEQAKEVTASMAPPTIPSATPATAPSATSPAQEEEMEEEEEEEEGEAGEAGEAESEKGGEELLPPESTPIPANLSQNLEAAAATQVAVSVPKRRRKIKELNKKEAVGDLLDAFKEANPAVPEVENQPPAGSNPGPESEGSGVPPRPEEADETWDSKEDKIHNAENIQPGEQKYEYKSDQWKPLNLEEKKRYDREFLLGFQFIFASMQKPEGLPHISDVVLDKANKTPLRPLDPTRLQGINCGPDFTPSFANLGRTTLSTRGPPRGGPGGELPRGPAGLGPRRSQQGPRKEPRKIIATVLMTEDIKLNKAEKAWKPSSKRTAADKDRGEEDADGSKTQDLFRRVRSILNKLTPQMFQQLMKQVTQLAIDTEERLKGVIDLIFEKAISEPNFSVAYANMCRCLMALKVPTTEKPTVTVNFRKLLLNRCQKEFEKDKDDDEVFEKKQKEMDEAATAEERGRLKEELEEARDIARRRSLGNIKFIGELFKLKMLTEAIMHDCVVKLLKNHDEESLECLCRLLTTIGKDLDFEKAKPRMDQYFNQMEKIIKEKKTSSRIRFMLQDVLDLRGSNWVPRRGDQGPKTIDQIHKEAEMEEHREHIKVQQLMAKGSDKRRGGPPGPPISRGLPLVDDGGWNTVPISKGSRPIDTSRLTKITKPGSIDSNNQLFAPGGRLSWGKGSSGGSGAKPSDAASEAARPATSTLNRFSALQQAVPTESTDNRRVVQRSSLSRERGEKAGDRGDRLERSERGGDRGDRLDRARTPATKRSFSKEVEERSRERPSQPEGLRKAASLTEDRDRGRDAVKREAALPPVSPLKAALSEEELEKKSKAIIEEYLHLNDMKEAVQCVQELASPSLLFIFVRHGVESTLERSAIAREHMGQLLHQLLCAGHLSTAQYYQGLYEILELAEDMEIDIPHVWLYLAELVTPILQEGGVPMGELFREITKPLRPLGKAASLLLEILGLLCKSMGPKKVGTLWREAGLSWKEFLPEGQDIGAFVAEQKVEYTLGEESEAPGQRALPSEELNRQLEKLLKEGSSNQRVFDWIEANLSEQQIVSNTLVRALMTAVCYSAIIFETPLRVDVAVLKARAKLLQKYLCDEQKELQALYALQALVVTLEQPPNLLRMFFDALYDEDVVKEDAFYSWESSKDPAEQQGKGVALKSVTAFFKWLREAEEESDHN
UniProt Q53HC9: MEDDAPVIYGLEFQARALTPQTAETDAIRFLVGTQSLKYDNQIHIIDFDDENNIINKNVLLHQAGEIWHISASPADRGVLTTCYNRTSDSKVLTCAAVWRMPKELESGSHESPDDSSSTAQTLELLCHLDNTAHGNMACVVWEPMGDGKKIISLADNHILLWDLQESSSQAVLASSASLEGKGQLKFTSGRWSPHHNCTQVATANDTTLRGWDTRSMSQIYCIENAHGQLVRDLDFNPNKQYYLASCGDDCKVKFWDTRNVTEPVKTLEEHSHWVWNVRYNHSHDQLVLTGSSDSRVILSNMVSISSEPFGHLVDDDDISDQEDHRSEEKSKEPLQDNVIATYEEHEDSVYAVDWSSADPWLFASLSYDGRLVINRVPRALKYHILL
UniProt Q13542: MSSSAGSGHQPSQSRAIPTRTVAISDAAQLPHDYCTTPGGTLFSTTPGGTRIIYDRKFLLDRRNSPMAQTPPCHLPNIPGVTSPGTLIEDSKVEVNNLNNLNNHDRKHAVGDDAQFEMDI
UniProt Q5UCC4: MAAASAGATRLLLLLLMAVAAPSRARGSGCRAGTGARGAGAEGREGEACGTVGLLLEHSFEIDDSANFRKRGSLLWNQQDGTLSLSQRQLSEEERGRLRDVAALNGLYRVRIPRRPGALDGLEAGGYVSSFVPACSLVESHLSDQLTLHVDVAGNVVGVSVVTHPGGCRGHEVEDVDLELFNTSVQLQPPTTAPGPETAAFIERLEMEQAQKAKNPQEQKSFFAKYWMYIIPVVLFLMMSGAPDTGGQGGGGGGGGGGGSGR
UniProt Q15029: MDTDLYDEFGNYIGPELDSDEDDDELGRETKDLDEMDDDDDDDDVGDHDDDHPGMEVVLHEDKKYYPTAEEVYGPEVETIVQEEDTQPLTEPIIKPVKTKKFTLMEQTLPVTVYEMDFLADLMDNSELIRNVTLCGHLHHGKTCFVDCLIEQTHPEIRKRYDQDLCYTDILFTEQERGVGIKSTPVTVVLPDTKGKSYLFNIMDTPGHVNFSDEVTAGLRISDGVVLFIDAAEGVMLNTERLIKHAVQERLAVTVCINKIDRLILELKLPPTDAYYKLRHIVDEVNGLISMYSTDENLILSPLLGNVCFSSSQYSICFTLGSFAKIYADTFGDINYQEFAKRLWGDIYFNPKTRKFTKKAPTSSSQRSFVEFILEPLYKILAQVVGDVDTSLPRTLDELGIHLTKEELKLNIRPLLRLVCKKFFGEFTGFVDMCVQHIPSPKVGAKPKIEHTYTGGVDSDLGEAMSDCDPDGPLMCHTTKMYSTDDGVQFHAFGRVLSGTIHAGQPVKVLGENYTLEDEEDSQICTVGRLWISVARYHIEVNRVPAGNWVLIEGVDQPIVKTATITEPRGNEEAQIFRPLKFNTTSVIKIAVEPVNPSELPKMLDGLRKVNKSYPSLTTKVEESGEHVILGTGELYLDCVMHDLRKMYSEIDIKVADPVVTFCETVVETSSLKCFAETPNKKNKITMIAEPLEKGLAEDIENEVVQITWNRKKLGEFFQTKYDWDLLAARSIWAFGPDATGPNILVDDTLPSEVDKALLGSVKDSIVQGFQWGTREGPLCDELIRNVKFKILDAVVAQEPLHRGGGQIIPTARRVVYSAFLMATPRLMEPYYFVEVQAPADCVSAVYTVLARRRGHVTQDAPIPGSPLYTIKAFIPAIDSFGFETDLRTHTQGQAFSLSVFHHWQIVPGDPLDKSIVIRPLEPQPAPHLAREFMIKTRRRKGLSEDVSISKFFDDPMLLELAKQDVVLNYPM
UniProt O43324: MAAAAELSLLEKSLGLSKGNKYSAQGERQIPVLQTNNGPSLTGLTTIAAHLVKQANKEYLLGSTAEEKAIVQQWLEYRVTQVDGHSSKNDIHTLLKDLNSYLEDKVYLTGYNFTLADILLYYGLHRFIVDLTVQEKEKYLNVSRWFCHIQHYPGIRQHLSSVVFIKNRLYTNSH
UniProt Q9P0I2: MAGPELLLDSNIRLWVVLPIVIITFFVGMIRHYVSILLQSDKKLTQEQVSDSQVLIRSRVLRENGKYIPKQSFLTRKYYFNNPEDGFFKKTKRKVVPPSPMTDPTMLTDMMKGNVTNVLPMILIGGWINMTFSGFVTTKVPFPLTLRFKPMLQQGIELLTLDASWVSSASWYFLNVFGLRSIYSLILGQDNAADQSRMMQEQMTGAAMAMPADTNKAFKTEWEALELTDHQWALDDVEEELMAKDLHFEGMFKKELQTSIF

[2] = compound: NC(=O)c1cnc(N[C@@H]2CCCC[C@@H]2N)nc1Nc1cccc(-n2nccn2)c1
Outline: as §1

[3] = compound: NC1(c2ccc(-c3nc4ccn5c(=O)[nH]nc5c4cc3-c3ccccc3)cc2)CCC1
Outline: as §1

[4] = compound: NCC(=O)Nc1ccc(-n2nc(C(F)(F)F)cc2-c2ccc3c(ccc4ccccc43)c2)cc1
Outline: as §1

entinostat = compound: Nc1ccccc1NC(=O)c1ccc(CNC(=O)OCc2cccnc2)cc1 [entinostat]
Outline: as §1

vorinostat = compound: O=C(CCCCCCC(=O)Nc1ccccc1)NO [vorinostat]
Outline: as §1

citarinostat = compound: O=C(CCCCCCNC(=O)c1cnc(N(c2ccccc2)c2ccccc2Cl)nc1)NO [citarinostat]
Outline: as §1

silmitasertib = compound: O=C(O)c1ccc2c(c1)nc(Nc1cccc(Cl)c1)c1ccncc12 [silmitasertib]
Outline: as §1

[5] = compound: O=C1NC(=O)C(c2cnc3ccccn23)=C1c1cn2c3c(cc(F)cc13)CN(C(=O)N1CCCCC1)CC2
Outline: as §1

[6] = compound: c1cc(OCCN2CCCCC2)cc(-c2n[nH]c3ccc(-c4nnc[nH]4)cc23)c1
Outline: as §1

Measured: log2 fold change

EMC4 (UniProt Q5J8M3)
inactive: [1] -0.042 | [2] 0.019 | [3] -0.056 | [4] 0.009 | entinostat -0.029 | vorinostat -0.069 | citarinostat 0.059 | silmitasertib -0.007 | [5] -0.067 | [6] -0.046

EIF3D (UniProt O15371)
inactive: [1] -0.065 | [2] -0.003 | [3] -0.04 | [4] -0.063 | entinostat 0.056 | vorinostat 0.135 | citarinostat 0.064 | silmitasertib 0.057 | [5] 0.275 | [6] -0.115

EIF3G (UniProt O75821)
inactive: [1] -0.039 | [2] -0.058 | [3] -0.034 | [4] -0.004 | entinostat 0.028 | vorinostat 0.084 | citarinostat 0.022 | silmitasertib 0.064 | [5] 0.015 | [6] -0.05

ENO3 (UniProt P13929)
inactive: [1] 0.074 | [2] 0.088 | [3] 0.02 | [4] 0.15 | entinostat 0.037 | vorinostat 0.03 | citarinostat 0.029 | silmitasertib 0.055 | [5] -0.006 | [6] 0.019

EIF2B4 isoform 2 (UniProt Q9UI10)
inactive: [1] 0.013 | [2] -0.028 | [3] -0.017 | [4] -0.014 | entinostat -0.035 | vorinostat 0.021 | citarinostat 0.03 | silmitasertib 0.018 | [5] 0.056 | [6] -0.055

EIF2S3 (UniProt P41091)
inactive: [1] 0.034 | [2] 0.006 | [3] 0.163 | [4] 0.025 | entinostat -0.001 | vorinostat 0 | citarinostat -0.044 | silmitasertib -0.001 | [5] 0.066 | [6] -0.154

EIF2S2 (UniProt P20042)
inactive: [1] 0.023 | [2] 0.047 | [3] 0.147 | [4] 0.043 | entinostat -0.008 | vorinostat 0.023 | citarinostat -0.051 | silmitasertib 0.051 | [5] 0.124 | [6] -0.066

ENPP3 (UniProt O14638)
inactive: [1] -0.121 | [2] -0.067 | [3] -0.166 | [4] -0.136 | entinostat -0.114 | vorinostat 0.002 | citarinostat -0.183 | silmitasertib 0.245 | [5] -0.089 | [6] -0.027

EML2 isoform 3 (UniProt O95834)
inactive: [1] -0.011 | [2] -0.064 | [3] -0.157 | [4] -0.05 | entinostat -0.016 | vorinostat 0.034 | citarinostat -0.004 | silmitasertib -0.026 | [5] 0 | [6] -0.072

EMC6 (UniProt Q9BV81)
inactive: [1] 0.064 | [2] 0.038 | [3] -0.056 | [4] -0.074 | entinostat -0.028 | vorinostat 0.13 | citarinostat 0.102 | silmitasertib -0.007 | [5] -0.105 | [6] -0.022

EFL1 (UniProt Q7Z2Z2)
inactive: [1] 0.001 | [2] -0.023 | [3] -0.106 | [4] -0.026 | entinostat 0.025 | vorinostat 0.071 | citarinostat 0.047 | silmitasertib 0.017 | [5] -0.025 | [6] -0.023

EML4 (UniProt Q9HC35)
inactive: [1] 0.011 | [2] -0.017 | [3] -0.071 | [4] -0.01 | entinostat 0.03 | vorinostat 0.06 | citarinostat 0 | silmitasertib 0.021 | [5] 0.149 | [6] -0.071

ELOC (UniProt Q15369)
inactive: [1] -0.008 | [2] -0.011 | [3] -0.015 | [4] -0.008 | entinostat 0.024 | vorinostat 0.024 | citarinostat 0.036 | silmitasertib -0.007 | [5] -0.107 | [6] -0.053

EIF3C (UniProt Q99613)
inactive: [1] -0.101 | [2] -0.077 | [3] -0.056 | [4] -0.039 | entinostat 0.047 | vorinostat 0.111 | citarinostat 0.032 | silmitasertib 0.098 | [5] 0.168 | [6] -0.131

EIF5A isoform 2 (UniProt P63241)
inactive: [1] 0.048 | [2] -0.018 | [3] -0.125 | [4] -0.006 | entinostat 0.072 | vorinostat 0.088 | citarinostat 0.11 | silmitasertib -0.022 | [5] -0.013 | [6] 0.017

ENDOD1 (UniProt O94919)
inactive: [1] -0.033 | [2] 0.015 | [3] 0.029 | [4] -0.015 | entinostat -0.051 | vorinostat -0.024 | citarinostat -0.016 | silmitasertib -0.001 | [5] -0.043 | [6] -0.045

EHBP1L1 (UniProt Q8N3D4)
inactive: [1] -0.091 | [2] -0.04 | [3] -0.039 | [4] -0.039 | entinostat 0 | vorinostat 0.054 | citarinostat 0.041 | silmitasertib 0.015 | [5] -0.043 | [6] -0.101

EEF1A2 (UniProt Q05639)
inactive: [1] -0.023 | [2] -0.06 | [3] 0.021 | [4] -0.023 | entinostat -0.011 | vorinostat 0.022 | citarinostat 0.03 | silmitasertib -0.07 | [5] -0.048 | [6] -0.043

EIF4G1 isoform 8 (UniProt Q04637)
inactive: [1] -0.104 | [2] -0.273 | [3] -0.154 | [4] -0.106 | entinostat 0.185 | vorinostat 0.116 | citarinostat 0.058 | silmitasertib -0.045 | [5] 0.194 | [6] -0.269

EIPR1 (UniProt Q53HC9)
inactive: [1] -0.038 | [2] 0.001 | [3] -0.054 | [4] -0.016 | entinostat 0 | vorinostat 0.007 | citarinostat -0.012 | silmitasertib 0.04 | [5] -0.068 | [6] 0.126

EIF4EBP2 (UniProt Q13542)
inactive: [1] -0.109 | [2] 0.223 | [3] 0.025 | [4] -0.126 | entinostat 0.187 | vorinostat -0.059 | citarinostat 0.02 | silmitasertib -0.067 | [5] -0.071 | [6] -0.09

EMC10 (UniProt Q5UCC4)
inactive: [1] -0.003 | [2] 0.002 | [3] -0.064 | [4] 0.021 | entinostat 0.03 | vorinostat 0.041 | citarinostat 0.007 | silmitasertib -0.04 | [5] -0.011 | [6] -0.021

9 consecutive entries from above:
ENPP3 (UniProt O14638)
inactive: [1] -0.121 | [2] -0.067 | [3] -0.166 | [4] -0.136 | entinostat -0.114 | vorinostat 0.002 | citarinostat -0.183 | silmitasertib 0.245 | [5] -0.089 | [6] -0.027

EML2 isoform 3 (UniProt O95834)
inactive: [1] -0.011 | [2] -0.064 | [3] -0.157 | [4] -0.05 | entinostat -0.016 | vorinostat 0.034 | citarinostat -0.004 | silmitasertib -0.026 | [5] 0 | [6] -0.072

EMC6 (UniProt Q9BV81)
inactive: [1] 0.064 | [2] 0.038 | [3] -0.056 | [4] -0.074 | entinostat -0.028 | vorinostat 0.13 | citarinostat 0.102 | silmitasertib -0.007 | [5] -0.105 | [6] -0.022

EFL1 (UniProt Q7Z2Z2)
inactive: [1] 0.001 | [2] -0.023 | [3] -0.106 | [4] -0.026 | entinostat 0.025 | vorinostat 0.071 | citarinostat 0.047 | silmitasertib 0.017 | [5] -0.025 | [6] -0.023

EML4 (UniProt Q9HC35)
inactive: [1] 0.011 | [2] -0.017 | [3] -0.071 | [4] -0.01 | entinostat 0.03 | vorinostat 0.06 | citarinostat 0 | silmitasertib 0.021 | [5] 0.149 | [6] -0.071

ELOC (UniProt Q15369)
inactive: [1] -0.008 | [2] -0.011 | [3] -0.015 | [4] -0.008 | entinostat 0.024 | vorinostat 0.024 | citarinostat 0.036 | silmitasertib -0.007 | [5] -0.107 | [6] -0.053

EIF3C (UniProt Q99613)
inactive: [1] -0.101 | [2] -0.077 | [3] -0.056 | [4] -0.039 | entinostat 0.047 | vorinostat 0.111 | citarinostat 0.032 | silmitasertib 0.098 | [5] 0.168 | [6] -0.131

EIF5A isoform 2 (UniProt P63241)
inactive: [1] 0.048 | [2] -0.018 | [3] -0.125 | [4] -0.006 | entinostat 0.072 | vorinostat 0.088 | citarinostat 0.11 | silmitasertib -0.022 | [5] -0.013 | [6] 0.017

ENDOD1 (UniProt O94919)
inactive: [1] -0.033 | [2] 0.015 | [3] 0.029 | [4] -0.015 | entinostat -0.051 | vorinostat -0.024 | citarinostat -0.016 | silmitasertib -0.001 | [5] -0.043 | [6] -0.045

Remaining list, next part

EIF2B5 (UniProt Q13144)
inactive: [1] -0.01 | [2] -0.043 | [3] -0.03 | [4] -0.005 | entinostat 0.007 | vorinostat 0.017 | citarinostat 0.043 | silmitasertib 0.046 | [5] 0.05 | [6] -0.047

EFTUD2 (UniProt Q15029)
inactive: [1] 0.073 | [2] 0.036 | [3] 0.039 | [4] 0.061 | entinostat -0.044 | vorinostat 0.002 | citarinostat 0.009 | silmitasertib -0.005 | [5] 0.036 | [6] -0.036

EIF4E isoform 2 (UniProt P06730)
inactive: [1] 0.005 | [2] 0.226 | [3] 0.059 | [4] 0.126 | entinostat -0.073 | vorinostat -0.01 | citarinostat -0.026 | silmitasertib 0.102 | [5] -0.044 | [6] 0.141

EIF4H (UniProt Q15056)
inactive: [1] -0.004 | [2] 0.004 | [3] 0.034 | [4] 0.009 | entinostat 0.013 | vorinostat 0.006 | citarinostat -0.009 | silmitasertib -0.028 | [5] -0.023 | [6] 0.088

EEF1E1 (UniProt O43324)
inactive: [1] 0.026 | [2] 0.021 | [3] 0.041 | [4] -0.045 | entinostat 0.042 | vorinostat 0.07 | citarinostat 0.045 | silmitasertib 0.099 | [5] 0.107 | [6] -0.1

EMC3 (UniProt Q9P0I2)
inactive: [1] -0.007 | [2] -0.049 | [3] -0.036 | [4] -0.017 | entinostat -0.034 | vorinostat 0.084 | citarinostat 0.029 | silmitasertib 0.01 | [5] -0.022 | [6] -0.056

EIF2S1 (UniProt P05198)
inactive: [1] -0.005 | [2] 0.04 | [3] 0.089 | [4] 0.012 | entinostat -0.02 | vorinostat 0.031 | citarinostat -0.016 | silmitasertib 0.012 | [5] 0.084 | [6] -0.02

EFCAB14 (UniProt O75071)
inactive: [1] 0.024 | [2] 0.218 | [3] -0.123 | [4] -0.006 | entinostat 0.007 | vorinostat -0.057 | citarinostat 0.181 | silmitasertib 0.022 | [5] -0.031 | [6] -0.075

Source: the supplement of paper PMC10849652
